Drawing on US20160081990A1 (priority 2013, published 2016), this text covers dissolution in water for two compounds.

Where a name gives a salt, the structure may show the parent alone. Read-outs that look alike come from different tables or passages of the source.

Turning to `COc1cc2c(cc1OC)C(=O)C(CC1CCN(Cc3ccccc3)CC1)C2` (centres unmarked) [donepezil free base, donepezil], the dissolution in water result was “not almost dissolved in water”.
As to `COc1cc2c(cc1OC)C(=O)C(CC1CCN(Cc3ccccc3)CC1)C2` (centres unmarked) [donepezil hydrochloride], the dissolution in water result (hydrochloride) is recorded as “dissolution in water”.
